# The supplement of paper PMC8728848
# The list shows a part of the results.
# B1: EfCBM33A (Enterococcus faecalis), Q838S1 (protein)
# chain: MKKSLLTIVLAFSFVLGGAALAPTVSEAHGYVASPGSRAFFGSSAGGNLNTNVGRAQWEPQSIEAPKNTFITGKLASAGVSGFEPLDEQTATRWHKTNITTGPLDITWNLTAQHRTASWDYYITKNGWNPNQPLDIKNFDKIASIDGKQEVPNKVVKQTINIPTDRKGYHVIYAVWGIGDTVNAFYQAIDVNIQ
# Assays:
# Assay in all cases: glycan array binding signal (z-score within array); higher = stronger binding
# Details in all cases: glycan notation: IUPAC condensed, linker removed
# Gal(a1-6)Glc = biological target: Gal(a1-6)Glc
# Summary of the method: (§1)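 The Consortium for Functional Glycomics database supplied 3228 glycan arrays, of which those lacking an available protein sequence were dropped. The binding signal, a within-array Z-score, was averaged across arrays of the same protein sequence and across linkers. Negative scores can be read as non-binding.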
# Gal(b1-2)Gal = biological target: Gal(b1-2)Gal
# Summary of the method: as §1
# Gal(b1-3)Gal = biological target: Gal(b1-3)Gal
# Summary of the method: as §1
# Gal(b1-3)Gal(b1-4)GlcNAc = biological target: Gal(b1-3)Gal(b1-4)GlcNAc
# Summary of the method: as §1
# Gal(b1-3)GalNAc = biological target: Gal(b1-3)GalNAc
# Summary of the method: as §1
# [1] = biological target: Gal(b1-3)GalNAc(a1-3)[Fuc(a1-2)]Gal(b1-4)Glc
# Summary of the method: as §1
# [2] = biological target: Gal(b1-3)GalNAc(a1-3)[Fuc(a1-2)]Gal(b1-4)GlcNAc
# Summary of the method: as §1
# Gal(b1-3)GalNAc(b1-3)Gal = biological target: Gal(b1-3)GalNAc(b1-3)Gal
# Summary of the method: as §1
# [3] = biological target: Gal(b1-3)GalNAc(b1-3)Gal(a1-4)Gal(b1-4)Glc
# Summary of the method: as §1
# [4] = biological target: Gal(b1-3)GalNAc(b1-4)Gal(b1-4)Glc
# Summary of the method: as §1
# [5] = biological target: Gal(b1-3)GalNAc(b1-4)[Neu5Ac(a2-3)]Gal(b1-4)Glc
# Summary of the method: as §1
# Gal(b1-3)GlcNAc = biological target: Gal(b1-3)GlcNAc
# Summary of the method: as §1
# [6] = biological target: Gal(b1-3)GlcNAc(a1-3)Gal(b1-4)GlcNAc
# Summary of the method: as §1
# [7] = biological target: Gal(b1-3)GlcNAc(a1-6)Gal(b1-4)GlcNAc
# Summary of the method: as §1
# Gal(b1-3)GlcNAc(b1-2)Man = biological target: Gal(b1-3)GlcNAc(b1-2)Man
# Summary of the method: as §1
# [8] = biological target: Gal(b1-3)GlcNAc(b1-2)Man(a1-3)[Gal(b1-3)GlcNAc(b1-2)Man(a1-6)]Man(b1-4)GlcNAc(b1-4)GlcNAc
# Summary of the method: as §1
# [9] = biological target: Gal(b1-3)GlcNAc(b1-2)Man(a1-3)[Gal(b1-3)GlcNAc(b1-2)Man(a1-6)]Man(b1-4)GlcNAc(b1-4)[Fuc(a1-6)]GlcNAc
# Summary of the method: as §1
# [10] = biological target: Gal(b1-3)GlcNAc(b1-2)Man(a1-3)[GlcNAc(b1-4)][Gal(b1-3)GlcNAc(b1-2)Man(a1-6)]Man(b1-4)GlcNAc(b1-4)GlcNAc
# Summary of the method: as §1
# [11] = biological target: Gal(b1-3)GlcNAc(b1-2)[Gal(b1-3)GlcNAc(b1-6)]Man(a1-6)[Gal(b1-3)GlcNAc(b1-2)Man(a1-3)]Man(b1-4)GlcNAc(b1-4)GlcNAc
# Summary of the method: as §1
# [12] = biological target: Gal(b1-3)GlcNAc(b1-3)Gal(b1-3)GlcNAc
# Summary of the method: as §1
# [13] = biological target: Gal(b1-3)GlcNAc(b1-3)Gal(b1-4)Glc
# Summary of the method: as §1
# [14] = biological target: Gal(b1-3)GlcNAc(b1-3)Gal(b1-4)GlcNAc
# Summary of the method: as §1
# [15] = biological target: Gal(b1-3)GlcNAc(b1-3)Gal(b1-4)GlcNAc(b1-2)Man(a1-3)[Gal(b1-3)GlcNAc(b1-3)Gal(b1-4)GlcNAc(b1-2)Man(a1-6)]Man(b1-4)GlcNAc(b1-4)GlcNAc
# Summary of the method: as §1
# [16] = biological target: Gal(b1-3)GlcNAc(b1-3)Gal(b1-4)GlcNAc(b1-2)[Gal(b1-3)GlcNAc(b1-3)Gal(b1-4)GlcNAc(b1-6)]Man(a1-6)[Gal(b1-3)GlcNAc(b1-3)Gal(b1-4)GlcNAc(b1-2)Man(a1-3)]Man(b1-4)GlcNAc(b1-4)[Fuc(a1-6)]GlcNAc
# Summary of the method: as §1
# [17] = biological target: Gal(b1-3)GlcNAc(b1-3)Gal(b1-4)GlcNAc(b1-3)Gal(b1-4)GlcNAc(b1-2)[Gal(b1-3)GlcNAc(b1-3)Gal(b1-4)GlcNAc(b1-3)Gal(b1-4)GlcNAc(b1-6)]Man(a1-6)[Gal(b1-3)GlcNAc(b1-3)Gal(b1-4)GlcNAc(b1-3)Gal(b1-4)GlcNAc(b1-2)Man(a1-3)]Man(b1-4)GlcNAc(b1-4)[Fuc(a1-6)]GlcNAc
# Summary of the method: as §1
# [18] = biological target: Gal(b1-3)GlcNAc(b1-3)Gal(b1-4)GlcNAc(b1-6)[Gal(b1-3)GlcNAc(b1-3)]Gal(b1-4)Glc
# Summary of the method: as §1
# [19] = biological target: Gal(b1-3)GlcNAc(b1-3)Gal(b1-4)[Fuc(a1-3)]GlcNAc
# Summary of the method: as §1
# [20] = biological target: Gal(b1-3)GlcNAc(b1-3)Gal(b1-4)[Fuc(a1-3)]GlcNAc(b1-6)[Gal(b1-3)GlcNAc(b1-3)]Gal(b1-4)Glc
# Summary of the method: as §1
# [21] = biological target: Gal(b1-3)GlcNAc(b1-3)GalNAc
# Summary of the method: as §1
# [22] = biological target: Gal(b1-3)GlcNAc(b1-6)Gal(b1-4)GlcNAc
# Summary of the method: as §1
# [23] = biological target: Gal(b1-3)GlcNAc(b1-6)GalNAc
# Summary of the method: as §1
# [24] = biological target: Gal(b1-3)GlcNAc(b1-6)[Gal(b1-3)]GalNAc
# Summary of the method: as §1
# Gal(b1-3)GlcNAc6S = biological target: Gal(b1-3)GlcNAc6S
# Summary of the method: as §1
# [25] = biological target: Gal(b1-3)[Fuc(a1-4)]GlcNAc
# Summary of the method: as §1
# [26] = biological target: Gal(b1-3)[Fuc(a1-4)]GlcNAc(b1-2)Man
# Summary of the method: as §1
# [27] = biological target: Gal(b1-3)[Fuc(a1-4)]GlcNAc(b1-2)Man(a1-3)[Gal(b1-3)[Fuc(a1-4)]GlcNAc(b1-2)Man(a1-6)]Man(b1-4)GlcNAc(b1-4)[Fuc(a1-6)]GlcNAc
# Summary of the method: as §1
# [28] = biological target: Gal(b1-3)[Fuc(a1-4)]GlcNAc(b1-3)Gal(b1-3)[Fuc(a1-4)]GlcNAc
# Summary of the method: as §1
# [29] = biological target: Gal(b1-3)[Fuc(a1-4)]GlcNAc(b1-3)Gal(b1-4)[Fuc(a1-3)]GlcNAc
# Summary of the method: as §1
# [30] = biological target: Gal(b1-3)[Fuc(a1-4)]GlcNAc(b1-6)GalNAc
# Summary of the method: as §1
# [31] = biological target: Gal(b1-3)[GlcNAc(b1-6)]GalNAc
# Summary of the method: as §1
# [32] = biological target: Gal(b1-3)[Neu5Ac(a2-6)]GalNAc
# Summary of the method: as §1
# [33] = biological target: Gal(b1-3)[Neu5Ac(a2-6)]GlcNAc(b1-4)Gal(b1-4)Glc
# Summary of the method: as §1
# [34] = biological target: Gal(b1-3)[Neu5Ac(b2-6)]GalNAc
# Summary of the method: as §1
# Gal(b1-4)Gal = biological target: Gal(b1-4)Gal
# Summary of the method: as §1
# [35] = biological target: Gal(b1-4)GalNAc(a1-3)[Fuc(a1-2)]Gal(b1-4)GlcNAc
# Summary of the method: as §1
binder,measurement,setting,value
B1,glycan array binding signal (z-score),Gal(a1-6)Glc,-0.904
same,glycan array binding signal (z-score),Gal(b1-2)Gal,0.182
same,glycan array binding signal (z-score),Gal(b1-3)Gal,0.159
same,glycan array binding signal (z-score),Gal(b1-3)Gal(b1-4)GlcNAc,-0.017
same,glycan array binding signal (z-score),Gal(b1-3)GalNAc,0.774
same,glycan array binding signal (z-score),[1],1.35
same,glycan array binding signal (z-score),[2],-1.18
same,glycan array binding signal (z-score),Gal(b1-3)GalNAc(b1-3)Gal,-0.58
same,glycan array binding signal (z-score),[3],0.56
same,glycan array binding signal (z-score),[4],-0.489
same,glycan array binding signal (z-score),[5],-0.003
same,glycan array binding signal (z-score),Gal(b1-3)GlcNAc,-0.112
same,glycan array binding signal (z-score),[6],0.358
same,glycan array binding signal (z-score),[7],-1.02
same,glycan array binding signal (z-score),Gal(b1-3)GlcNAc(b1-2)Man,0.27
same,glycan array binding signal (z-score),[8],-0.145
same,glycan array binding signal (z-score),[9],-1.82
same,glycan array binding signal (z-score),[10],0.324
same,glycan array binding signal (z-score),[11],0.094
same,glycan array binding signal (z-score),[12],-0.688
same,glycan array binding signal (z-score),[13],-0.371
same,glycan array binding signal (z-score),[14],2.06
same,glycan array binding signal (z-score),[15],0.319
same,glycan array binding signal (z-score),[16],0.239
same,glycan array binding signal (z-score),[17],0.259
same,glycan array binding signal (z-score),[18],0.202
same,glycan array binding signal (z-score),[19],-0.578
same,glycan array binding signal (z-score),[20],0.039
same,glycan array binding signal (z-score),[21],-0.372
same,glycan array binding signal (z-score),[22],0.238
same,glycan array binding signal (z-score),[23],0.08
same,glycan array binding signal (z-score),[24],-1.31
same,glycan array binding signal (z-score),Gal(b1-3)GlcNAc6S,-0.191
same,glycan array binding signal (z-score),[25],0.239
same,glycan array binding signal (z-score),[26],0.661
same,glycan array binding signal (z-score),[27],0.012
same,glycan array binding signal (z-score),[28],-1.4
same,glycan array binding signal (z-score),[29],-1.13
same,glycan array binding signal (z-score),[30],1.97
same,glycan array binding signal (z-score),[31],-0.355
same,glycan array binding signal (z-score),[32],-0.171
same,glycan array binding signal (z-score),[33],0.516
same,glycan array binding signal (z-score),[34],-2.01
same,glycan array binding signal (z-score),Gal(b1-4)Gal,0.938
same,glycan array binding signal (z-score),[35],-0.429
